The results in this text go back to PubChem BioAssay AID493014 (National Center for Advancing Translational Sciences (NCATS), 2011).

The experiment is described as follows: qHTS Assay to Find Inhibitors of Chronic Active B-Cell Receptor Signaling. The note with it: ABC-DLBCL IkBa-CBG/CBR reporter, luminescence ratio (green luciferase fused to IkBa over red control in TMD8 lymphoma cells), 4 h. Summed up: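 Compounds up to 46 uM were incubated four hours with TMD8 cells whose green CBG68 luciferase is fused to IkappaBalpha; red CBR luminescence normalised the signal, and concentration-effect curves were fitted to fusion, red and ratio data.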

[1] abbreviates: measured here: CBR red luminescence, cell number.
Where [2] appears, read: measured here: IkBa-CBG green luminescence.

The other results are listed elsewhere or left out. Shown are side measurements of this screen, not its main read-out; they come without a call. Most of these compounds were active or inconclusive in the main read-out, so they are no random draw. The note in brackets gives the kind of curve behind each potency; many fits are weak.

In the case of `COc1ccc(Nc2nc(N)nc(CSc3nccn3C)n2)cc1`, the concentration at half-maximal activity (AC50) – broadly, the concentration giving half of the maximal activity seen – under setting [1] is 17.8 µM [falling, partial curve, poor fit].
Same read-out and setting: the same measure for `CCOc1ccccc1NS(=O)(=O)c1c(C)noc1C`: 11.2 µM [rising, partial curve].
Regarding `CCc1ccc(-c2nnn(CC(=O)N(C3CCCC3)C3CCS(=O)(=O)C3)n2)cc1` (stereo unspecified), under setting [1], the half-maximal activity concentration (AC50) is 2.91 µM [falling, partial curve, poor fit].
`O=C(NCc1cccnc1)C1CCN(c2ccc(S(=O)(=O)N3CCOCC3)cc2Cl)CC1`: under setting [1], the AC50 is 3.16 µM [rising, single point].
As to `CCOC(=O)c1cccc(NC(=O)CCc2nc(-c3ccccc3F)no2)c1`, the AC50 under setting [1] is 3.16 µM [rising, partial curve, poor fit].
For the compound `Cc1ccccc1C(=O)N/N=C/c1ccccn1`, the concentration at half-maximal activity (AC50) under setting [1] is 11.6 µM [falling, partial curve].
`CC1(C)N(O)CC(c2cccs2)=[N+]1[O-]`: under setting [1], the half-maximal activity concentration (AC50) was 29.1 µM [falling, partial curve, poor fit].
Same read-out and setting: the same measure for `COc1ccc(OC)c(NC(=O)CN(c2ccc(C)cc2)S(=O)(=O)c2c(C)n[nH]c2C)c1`: 3.55 µM [falling, full curve].
Take `Cc1cc(/C=N/NC(N)=S)c(C)n1-c1ccc(Cl)cc1`: the half-maximal activity concentration (AC50) by setting is: under setting [1], 18.4 µM [falling, single point]; under setting [2], 18.4 µM [falling, single point].
As to `Cc1ccc(C(=O)CC(=O)c2ccccc2)cc1`, the AC50 under setting [1] is 3.55 µM [rising, partial curve, poor fit].
The same measure, in the same setting: the same measure for `O=C(C1=C[C@H](c2csc3ccccc23)C[C@H](OCCCCO)O1)N1CCN(Cc2ccccc2)CC1`: 8.91 µM [falling, partial curve, poor fit].
Regarding `C#CCOCCOCCOCCNc1nc(N2CCN(C(=O)CCCCCCCCCCNC(=O)[C@H]([C@@H](C)CC)n3cc(CCCCN=C(N)N)nn3)CC2)nc(N2CCN(C(=O)CCCCCCCCCCNC(=O)[C@H](CO)n3cc(CCCCCN)nn3)CC2)n1`, the concentration at half-maximal activity (AC50) reads like this: under setting [1], 23.1 µM [rising, partial curve]; under setting [2], 20.6 µM [falling, partial curve, poor fit].
As to `Cn1c(C(=O)Nc2ccc3c(c2)OCO3)cc2sccc21`, under setting [1], the half-maximal activity concentration (AC50) is 14.1 µM [falling, single point].
As to `Cc1onc(-c2c(F)cccc2Cl)c1C(=O)Nc1cccc(S(=O)(=O)N2CCOCC2)c1`, the half-maximal activity concentration (AC50) runs as follows: under setting [1], 6.51 µM [rising, partial curve, poor fit]; under setting [2], 5.17 µM [falling, single point].
Consider `COc1ccc2ccccc2c1/C=N/O`, for which, under setting [1], the AC50 is 20 µM [falling, partial curve, poor fit].
Same read-out and setting: the same measure for `Cn1cc(CN2CCc3c([nH]c4ccccc34)C2C(C)(C)C)cn1` (stereo unspecified): 20 µM [falling, partial curve, poor fit].
Consider `Cc1cc(C(F)F)n2ncc(C(=O)NC3CCCCCC3)c2n1`, for which, under setting [1], the half-maximal activity concentration (AC50) was 1.84 µM [rising, partial curve, poor fit].
Still for that read-out and setting: the same measure for `Cn1cc(C(c2ccccn2)c2cn(C)c3ccccc23)c2ccccc21`: 18.4 µM [falling, single point]; for `CNc1nc(Nc2ccc(C)c(Cl)c2)nc(N)c1[N+](=O)[O-]`: 16.4 µM [rising, partial curve, poor fit]; for `Cc1c(/C(O)=C2\C(=O)C(=O)N(CCN(C)C)C2c2ccco2)cnn1-c1ccccc1` (stereo unspecified): 4.61 µM [rising, full curve, poor fit].
On the same count and under the same terms, in the case of `CC(=O)NC(=S)Nc1ccc(S(=O)(=O)N2CCOCC2)cc1` it was 7.08 µM [rising, partial curve, poor fit].
The same measure, in the same setting: the same measure for `Cc1ccc(NC(=O)c2cc(S(=O)(=O)N3CCCCCC3)ccc2F)cc1F`: 6.31 µM [falling, partial curve]; for `O=C(/C=C/c1ccccc1Cl)Nc1cccc(O)c1`: 15.8 µM [falling, partial curve]; for `C/C(Cn1cnc([N+](=O)[O-])n1)=N\NC(=O)c1ccccc1O`: 3.55 µM [falling, full curve, poor fit].
As for `Fc1ccccc1COc1ccc(/C=N/NC(=S)NCc2ccccc2)cc1`, under setting [1], the AC50 is 20.6 µM [rising, partial curve, poor fit].
In the case of `CCNC(=S)NNC(=O)c1cc(-c2cccc(OC)c2)nc2ccccc12`, the AC50 under setting [1] is 18.4 µM [falling, partial curve].
As to `C[C@@]12C(=O)Nc3ccc(Br)cc3C(=O)N1[C@H]1c3ccccc3OC[C@@H]1[C@@H]2c1ccccc1`, the AC50 is 20.6 µM [falling, single point] under setting [1] and 3.26 µM [rising, full curve, poor fit] under setting [2].
For `Cc1cc(C(=O)Nc2cccc(-c3ccc(N4CCOCC4)nn3)c2)ccc1[N+](=O)[O-]`, the concentration at half-maximal activity (AC50) under setting [1] was 25.9 µM [falling, single point].
With `N/C(=N\NS(=O)(=O)c1cc(C(F)(F)F)cc(C(F)(F)F)c1)c1ccccn1`, under setting [1], the AC50 is 20 µM [rising, single point].
For the compound `CCCCCCNC(=O)c1cc(-c2ccco2)nc2ccccc12`, the concentration at half-maximal activity (AC50) under setting [2] was 20.6 µM [rising, partial curve, poor fit].
Regarding `COc1ccc(OC)c(/C=N/NC(=O)CCCC(=O)Nc2cccc(Br)c2)c1`, the AC50 under setting [1] is 22.4 µM [falling, single point].
The same measure, in the same setting: in the case of `COCCNC(=O)c1onc(CSc2cc(C)cc(C)c2)c1C(=O)O` it was 31.6 µM [falling, single point].
With `Cc1c(-c2ccccc2)[n+](=O)c(-c2ccco2)c(C)n1[O-]`, the concentration at half-maximal activity (AC50) runs as follows: under setting [1], 6.51 µM [falling, single point]; under setting [2], 6.51 µM [rising, partial curve, poor fit].
With `CC(=O)c1ccc(N2CCC(c3cc(-c4ccc(Cl)cc4Cl)n[nH]3)CC2)c([N+](=O)[O-])c1`, the AC50 is 11.2 µM [falling, partial curve, poor fit] under setting [1] and 11.2 µM [rising, partial curve, poor fit] under setting [2].
With `CN(C)c1ccc(/C=C2\SC(=O)N(CCc3nnc(N)s3)C2=O)cc1`, the AC50 under setting [1] was 2.82 µM [falling, partial curve].
In the case of `O=c1cc(CSc2nnnn2-c2ccccc2)nc(Nc2ccc(F)cc2)[nH]1`, the AC50 under setting [1] is 0.291 µM [rising, full curve, poor fit].
Same read-out and setting: in the case of `O=C(COc1ccc(Br)cc1)Nc1ccc(S(=O)(=O)Nc2ccccn2)cc1` it was 35.5 µM [falling, single point]; in that of `COc1ccc(C2=NOC(CNC(N)=S)C2)cc1` (stereo unspecified), 35.5 µM [falling, single point].
The same measure, in the same setting: in the case of `N#Cc1ccc(NC(=O)c2cccs2)nc1` it was 15.8 µM [falling, single point]; in that of `O=C(Nc1ccc(Cl)c(Cl)c1)Nc1ccccc1O`, 5.01 µM [falling, full curve].
Regarding `CCOc1ccc(CCNC(=O)c2ccc(CSCc3ccccc3C)o2)cc1OCC`, the AC50 under setting [1] was 11.2 µM [falling, single point].
Regarding `Cc1ccc(C(=O)OCc2nc(N)nc(Nc3ccccc3C)n2)cc1`, the AC50 under setting [2] is 29.1 µM [falling, partial curve, poor fit].
For the compound `COc1cc(OC)c2c(c1)OC(c1ccc(OC)c(OC)c1)C(O)C2=O` (stereo unspecified), the half-maximal activity concentration (AC50) under setting [1] is 5.8 µM [rising, full curve, poor fit].
Same read-out and setting: the same measure for `COCC(=O)Nc1ccc(N(C)C)cc1`: 3.66 µM [rising, partial curve, poor fit].
Take `COc1ccc(-c2cc(C(F)(F)F)n3nc(C(=O)NCc4ccco4)cc3n2)cc1`: the AC50 under setting [2] was 12.6 µM [falling, partial curve, poor fit].
On to `C[C@@H](C(=O)NCCc1ccc(F)cc1)N1C(=O)N2CCc3c([nH]c4ccccc34)[C@@]2(C)C1=O`, for which the AC50 under setting [1] is 35.5 µM [falling, single point].
Same read-out and setting: in the case of `COc1ccccc1N1C(=O)c2ccc(C(=O)Nc3ccccc3O)cc2C1=O` it was 25.1 µM [falling, single point]; in that of `O=C(Nc1ccc(Cl)cc1)Nc1nnc(SCc2ccccc2)s1`, 0.82 µM [rising, full curve, poor fit].
On to `Cn1cccc1-c1cc(C(=O)N/N=C/c2ccccc2Cl)[nH]n1`, for which the AC50 under setting [1] is 8.91 µM [falling, partial curve, poor fit].
The same measure, in the same setting: in the case of `O=C(NNc1ncccc1-n1cccc1)c1ccc(Cl)cc1` it was 10 µM [rising, partial curve, poor fit].
On the same count and under the same terms, in the case of `COc1ccc2cc(-c3ccccc3)c(=O)oc2c1` it was 8.91 µM [falling, partial curve, poor fit].
On the same count and under the same terms, the same measure for `Cc1ccccc1CN1C(=O)c2ccccc2S(=O)c2ccc(C(=O)NCCCN3CCOCC3)cc21` (stereo unspecified): 14.1 µM [falling, single point]; for `CC1CCCC(NC(=O)CSC2CCCCC2)C1C` (stereo unspecified): 0.398 µM [falling, partial curve, poor fit]; for `C=CC(=O)Nc1cccc(Oc2cc(Cl)nc3[nH]ccc23)c1`: 11.6 µM [falling, partial curve, poor fit].
Turning to `CCCC1=Nc2cc(C(=O)NC3CCCCC3)ccc2Sc2ccc(C)cc21`, the AC50 under setting [1] was 1.41 µM [rising, full curve, poor fit] and the half-maximal activity concentration (AC50) under setting [2] was 1.26 µM [falling, full curve].
In the case of `COc1ccc(NC(=O)Cn2c(-c3ccc(F)cc3)cc(C(C)=O)c2C)c(OC)c1`, the concentration at half-maximal activity (AC50) under setting [1] was 6.31 µM [rising, single point].
On the same count and under the same terms, in the case of `CN(C)S(=O)(=O)c1cccc(NC(=O)c2ccc(COc3ccccc3)cc2)c1` it was 35.5 µM [falling, single point].
`O=[N+]([O-])c1cc(/C=N/Nc2nc3ccccc3[nH]2)c(O)cc1O`: the AC50 under setting [1] is 0.366 µM [falling, full curve].
On the same count and under the same terms, the same measure for `CC(C)CCNC(=O)C(c1ccc(O)cc1)N(C(=O)C1COc2ccccc2O1)c1cccc(O)c1` (stereo unspecified): 28.2 µM [falling, partial curve, poor fit].
